The experiment has as its target LexA-CnTps1(56-669) (Cryptococcus neoformans var. grubii strain H99) (UniProt Q6IVK9). Nature of the experiment: two-hybrid.

These are yes or no findings as the source states them, for the method shown. Some binding calls cover weakened binding; strength is not graded here.

With “LexA-CnTps1(56-669) (from UniProt Q6IVK9 56-669) (domain or fragment)”, the binding entry is listed as “binds”.
